Test results published in PubChem BioAssay AID296 (DTP/NCI, 2004).
The list shows only some results of the screen, not a fair sample: it is rich in T/C values a quarter to a half above the control, in often repeated tests (any T/C) and in doses without a T/C. Other doses and runs of a compound stand elsewhere. T/C is the treated group as % of the vehicle group. Schedules are NCI's codes, read here as Q, the interval in days (D) or hours (H), X, the number of doses. Some entries give survivors of the animals treated and no T/C: the source files T/C as zero there, which appears to mark a toxic dose or a test without result, not a measured value. Counts of survivors are from the toxicity check (mostly the fifth day) where no day follows; animals may have died later. Some entries hold several experiments; the results are listed from low to high.

Test system: MX-1 breast xenograft, nude mice, tumor weight T/C
Experiment: NCI In Vivo Anticancer Drug Screen. Data for tumor model Human Mammary Carcinoma MX-1 Xenograft (intrarenal inoculation) in NU/NU Swiss (nude) mice
Settings: T/C endpoint: mean tumor weight change, higher T/C = larger tumour
Procedure: The antitumor activity of compounds was measured in mice bearing transplantable tumors. Survival or tumor size were measured and the results are expressed as the measurement made in the treated group (T) divided by the measurement made in the vehicle treated control group (C). The tumor model used in this assay is Human Mammary Carcinoma MX-1 Xenograft (intrarenal inoculation) in NU/NU Swiss (nude) mice

[1] = dose: 600.0 mg/kg/injection, schedule: Q04DX003 (sc), vehicle: saline

## COc1ccc(-c2csc(=[N+]3CCCCC3)s2)cc1
dose: 25.0 mg/kg/injection, schedule: Q04DX003 (sc), vehicle: water
  survivor count: 3 of 6 on day 11

## CCN(CC)CCNc1ccc(C)c2sc3ccccc3c(=O)c12
dose: 200.0 mg/kg/injection, schedule: Q01DX010 (sc), vehicle: saline
  survivor count: 0 of 3 on day 11
dose: 400.0 mg/kg/injection, schedule: Q01DX010 (sc), vehicle: saline
  survivor count: 0 of 3 on day 11

## OCCN1CCN(CC/C=C2/c3ccccc3Sc3ccc(C(F)(F)F)cc32)CC1
dose: 480.0 mg/kg/injection, schedule: Q04DX003 (sc), vehicle: saline
  survivor count: 0 of 6 on day 11
dose: 960.0 mg/kg/injection, schedule: Q04DX003 (sc), vehicle: saline
  survivor count: 0 of 6 on day 11

## O=CC(CO)CC(C=O)n1cnc2c(=O)[nH]cnc21 (configuration not stated)
dose: 1200.0 mg/kg/injection, schedule: Q04DX003 (ip), vehicle: saline
  survivor count: 0 of 6 on day 11

## C=CCOCC1CO1 (configuration not stated)
[1]
  survivor count: 0 of 6 on day 11
dose: 1200.0 mg/kg/injection, schedule: Q04DX003 (sc), vehicle: saline
  survivor count: 0 of 6 on day 11
dose: 2400.0 mg/kg/injection, schedule: Q04DX003 (sc), vehicle: saline
  survivor count: 0 of 6 on day 11

## CC1CN1C(=O)NCCCCCCNC(=O)N1CC1C (configuration not stated)
dose: 40.0 mg/kg/injection, schedule: Q04DX003 (sc), vehicle: Klucel (hydroxypropylcellulose) (HPC)
  survivor count: 1 of 6 on day 11
dose: 80.0 mg/kg/injection, schedule: Q04DX003 (sc), vehicle: Klucel (hydroxypropylcellulose) (HPC)
  survivor count: 0 of 6 on day 11

## CN(CO)c1nc(N(C)CO)nc(N(C)CO)n1
dose: 25.0 mg/kg/injection, schedule: Q01DX008 (ip), vehicle: saline
  survivor count: 0 of 5
dose: 50.0 mg/kg/injection, schedule: Q01DX008 (ip), vehicle: saline
  survivor count: 0 of 5
dose: 100.0 mg/kg/injection, schedule: Q01DX008 (ip), vehicle: saline
  survivor count: 0 of 5
dose: 200.0 mg/kg/injection, schedule: Q01DX008 (ip), vehicle: saline
  survivor count: 0 of 5
dose: 200.0 mg/kg/injection, schedule: Q01DX010 (sc), vehicle: suspension in saline
  survivor count: 2 of 6 on day 11
dose: 300.0 mg/kg/injection, schedule: Q04DX003 (sc), vehicle: saline
  survivor count: 2 of 6 on day 11
dose: 300.0 mg/kg/injection, schedule: Q04DX003 (sc), vehicle: suspension in saline
  survivor count: 1 of 6 on day 11
dose: 400.0 mg/kg/injection, schedule: Q01DX010 (sc), vehicle: suspension in saline
  survivor count: 0 of 6 on day 11
[1]
  survivor count: 0 of 6 on day 11 and 3 of 6 on day 11
dose: 600.0 mg/kg/injection, schedule: Q04DX003 (sc), vehicle: suspension in saline
  survivor count: 0 of 6 on day 11 and 1 of 6 on day 11

## CO[C@@]12[C@@H]3N[C@@H]3CN1C1=C(C(=O)C(NCCc3ccccn3)=C(C)C1=O)[C@@H]2COC(N)=O
dose: 50.0 mg/kg/injection, schedule: Q04DX003 (ip), vehicle: saline with Tween-80
  survivor count: 0 of 6 on day 11

## CC(=O)OCC1OC(n2ncc(=O)[nH]c2=O)C(OC(C)=O)C1OC(C)=O (configuration not stated)
dose: 1200.0 mg/kg/injection, schedule: Q04DX003 (sc), vehicle: suspension in saline, evaluated on day 11
  T/C: 137 % of control

## CCOC(=O)Nc1cc2c(c(N)n1)N=C(c1ccc(Cl)cc1Cl)CN2
dose: 600.0 mg/kg/injection, schedule: Q04DX003 (sc), vehicle: saline with Tween-80
  survivor count: 3 of 6 on day 11
dose: 1200.0 mg/kg/injection, schedule: Q04DX003 (sc), vehicle: saline with Tween-80
  survivor count: 0 of 6 on day 11

## CCC[CH2][Hg][Cl]
dose: 75.0 mg/kg/injection, schedule: Q04DX003 (sc), vehicle: Klucel (hydroxypropylcellulose) (HPC)
  survivor count: 2 of 6 on day 11

## O=C1C(NCC(O)CO)=C(N2CC2)C(=O)C(NCC(O)CO)=C1N1CC1 (configuration not stated)
dose: 32.0 mg/kg/injection, schedule: Q04DX003 (ip), vehicle: saline
  survivor count: 1 of 3 on day 11
